Measurements published in PubChem BioAssay AID258 (DTP/NCI, 2004).
The list does not hold the whole screen: it is rich in T/C values a quarter to a half above the control, in often repeated tests (any T/C) and in doses without a T/C. Other doses and runs of a compound stand elsewhere. T/C gives the treated animals as a percentage of the vehicle group. Some entries give survivors of the animals treated and no T/C: the source files T/C as zero there, which appears to mark a toxic dose or a test without result, not a measured value. Counts of survivors are from the toxicity check (mostly the fifth day) where no day follows; animals may have died later. Schedules are NCI's codes, read here as Q, the interval in days (D) or hours (H), X, the number of doses. Some schedule codes hold Z or #, which are not explained here. Where survival is the endpoint, this PubChem deposit counts one and a half times the control or more as active, and values a quarter to a half above the control carry no call in these data; other NCI protocols may use other cut-offs. Some entries were tested several times; the values are given in rising order. Marks such as (2×) say how often a value occurs here. Some T/C values carry the count of animals alive at the toxicity check (mostly the fifth day); where none is given, no animal had died by that day.

System: CD2F1 mice, L1210 leukemia sc, survival T/C
Experiment: NCI In Vivo Anticancer Drug Screen. Data for tumor model L1210 Leukemia (subcutaneous) in CD2F1 (CDF1) mice
Details: T/C endpoint: median survival time, higher T/C = longer survival
How it was run: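 T/C ratio: treated-group survival or tumor size over vehicle-control group measurement, in mice carrying transplanted tumors.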

[1] = dose: 14.0 mg/kg/injection, schedule: Q01DX Z (sc), vehicle: methylcellulose (MC)
[2] = dose: 23.0 mg/kg/injection, schedule: Q01DX Z (sc), vehicle: methylcellulose (MC)
[3] = dose: 39.0 mg/kg/injection, schedule: Q01DX Z (sc), vehicle: methylcellulose (MC)
[4] = dose: 65.0 mg/kg/injection, schedule: Q01DX Z (sc), vehicle: methylcellulose (MC)
[5] = dose: 108.0 mg/kg/injection, schedule: Q01DX Z (sc), vehicle: methylcellulose (MC)
[6] = dose: 12.5 mg/kg/injection, schedule: Q01DX009 (sc), vehicle: saline
[7] = dose: 400.0 mg/kg/injection, schedule: Q01DX009 (sc), vehicle: saline

For O=C(Nc1ccc(C2=NCCN2)cc1)c1cccc(C(=O)Nc2ccc(C3=NCCN3)cc2)c1, the survivor count (dose: 5.0 mg/kg/injection, schedule: Q01DX Z (sc), vehicle: methylcellulose (MC)) was 0 of 10, the survivor count (dose: 8.4 mg/kg/injection, schedule: Q01DX Z (sc), vehicle: methylcellulose (MC)) was 3 of 10 and the T/C [1] was 138 % of control [9 of 10 alive]. For the same compound, the survivor count [1] was 4 of 10, the survivor count (dose: 16.0 mg/kg/injection, schedule: Q01DX Z (iv), vehicle: water) was 5 of 10 and the survivor count [2] was 5 of 10. For the same compound, the survivor count (dose: 32.0 mg/kg/injection, schedule: Q01DX Z (iv), vehicle: water) was 3 of 10, the survivor count [3] was 5 of 10 and the survivor count [4] was 3 of 10. For the same compound, the T/C [5] was 133 % of control [9 of 10 alive] and the survivor count [5] was 5 of 10.
For Oc1ccc(F)c2cccnc12, the survivor count (dose: 300.0 mg/kg/injection, schedule: Q01DX Z (sc), vehicle: other) was 6 of 10 and the survivor count (dose: 500.0 mg/kg/injection, schedule: Q01DX Z (sc), vehicle: other) was 4 of 10.
For CS(=O)(=O)OCCCCCCCCCOS(C)(=O)=O, the survivor count [2] was 0 of 10, the survivor count [3] was 1 of 10 and the survivor count [4] was 1 of 10. For the same compound, the T/C (dose: 78.0 mg/kg/injection, schedule: Q01DX Z (sc), vehicle: carboxymethylcellulose (CMC)) was 131 % of control, the survivor count [5] was 5 of 10 and the T/C (dose: 130.0 mg/kg/injection, schedule: Q01DX Z (sc), vehicle: carboxymethylcellulose (CMC)) was 137 % of control. The survivor count (dose: 180.0 mg/kg/injection, schedule: Q01DX Z (sc), vehicle: methylcellulose (MC)) was 4 of 10, the T/C (dose: 216.0 mg/kg/injection, schedule: Q01DX Z (sc), vehicle: carboxymethylcellulose (CMC)) was 137 % of control and the survivor count (dose: 300.0 mg/kg/injection, schedule: Q01DX Z (sc), vehicle: methylcellulose (MC)) was 1 of 10. The T/C (dose: 360.0 mg/kg/injection, schedule: Q01DX Z (sc), vehicle: carboxymethylcellulose (CMC)) was 131 % of control, the survivor count (dose: 500.0 mg/kg/injection, schedule: Q01DX Z (sc), vehicle: methylcellulose (MC)) was 2 of 10 and the T/C (dose: 600.0 mg/kg/injection, schedule: Q01DX Z (sc), vehicle: carboxymethylcellulose (CMC)) was 131 % of control.
With COC(=O)C(CCc1ccccc1[N+](=O)[O-])C(=O)OC the survivor count (dose: 5.0 mg/kg/injection, schedule: Q01DX Z (sc), vehicle: other) was 1 of 10, the survivor count (dose: 8.4 mg/kg/injection, schedule: Q01DX Z (sc), vehicle: other) was 0 of 10 and the survivor count (dose: 14.0 mg/kg/injection, schedule: Q01DX Z (sc), vehicle: other) was 2 of 10. The survivor count (dose: 23.0 mg/kg/injection, schedule: Q01DX Z (sc), vehicle: other) was 2 of 10, the survivor count (dose: 39.0 mg/kg/injection, schedule: Q01DX Z (sc), vehicle: other) was 2 of 10 and the survivor count (dose: 65.0 mg/kg/injection, schedule: Q01DX Z (sc), vehicle: other) was 1 of 10. The survivor count (dose: 108.0 mg/kg/injection, schedule: Q01DX Z (sc), vehicle: other) was 0 of 10 and the survivor count (dose: 180.0 mg/kg/injection, schedule: Q01DX Z (sc), vehicle: other) was 0 of 10.
O=c1n[n+]([O-])ccn1C1OC(CO)C(O)C1O (stereo unspecified) was tested, and the survivor count (dose: 800.0 mg/kg/injection, schedule: Q01DX009 (ip), vehicle: saline) was 1 of 10.
Nc1nc(=S)c2[nH]cnc2[nH]1 was tested, and the survivor count (dose: 1.3 mg/kg/injection, schedule: Q01DX Z (sc), vehicle: other) was 6 of 10.
CC[C@](O)(C(=O)O)c1cc2n(c(=O)c1CO)Cc1cc3ccccc3nc1-2 was tested, and the T/C (dose: 1.0 mg/kg/injection, schedule: Q01DX009 (ip), vehicle: saline) was 147 % of control, the T/C (dose: 1.0 mg/kg/injection, schedule: Q01DX009 (sc), vehicle: saline) was 126 % of control and the T/C (dose: 1.33 mg/kg/injection, schedule: Q01DX009 (sc), vehicle: saline) was 128 % of control. For the same compound, the T/C (dose: 1.5 mg/kg/injection, schedule: Q01DX009 (sc), vehicle: saline) was 145 % of control, the T/C (dose: 2.0 mg/kg/injection, schedule: Q01DX009 (ip), vehicle: saline) was 139 % of control and the T/C (dose: 2.0 mg/kg/injection, schedule: Q01DX009 (sc), vehicle: saline, evaluated on day 30) was 144, 146, 151 % of control. The T/C (dose: 2.0 mg/kg/injection, schedule: Q01DX009 (sc), vehicle: saline, evaluated on day 45) was 147 % of control, the T/C (dose: 2.5 mg/kg/injection, schedule: Q01DX009 (sc), vehicle: saline) was 137 % of control and the T/C (dose: 3.0 mg/kg/injection, schedule: Q01DX009 (ip), vehicle: saline) was 139 % of control. For the same compound, the T/C (dose: 3.0 mg/kg/injection, schedule: Q01DX009 (sc), vehicle: saline) was 141 and 148 % of control (2×), the T/C (dose: 3.5 mg/kg/injection, schedule: Q01DX009 (sc), vehicle: saline) was 130 % of control and the T/C (dose: 4.0 mg/kg/injection, schedule: Q01DX009 (sc), vehicle: saline, evaluated on day 30) was 126 and 150 % of control. The T/C (dose: 4.0 mg/kg/injection, schedule: Q01DX009 (sc), vehicle: saline, evaluated on day 45) was 141 and 152 % of control, the T/C (dose: 6.0 mg/kg/injection, schedule: Q01DX009 (sc), vehicle: saline) was 137 % of control and the T/C (dose: 8.0 mg/kg/injection, schedule: Q01DX009 (sc), vehicle: saline) was 125 % of control.
In the case of Cc1cccnc1, the survivor count (dose: 39.0 mg/kg/injection, schedule: Q01DX Z (sc), vehicle: water) was 6 of 10, the survivor count (dose: 65.0 mg/kg/injection, schedule: Q01DX Z (sc), vehicle: water) was 5 of 10 and the survivor count (dose: 300.0 mg/kg/injection, schedule: Q01DX Z (sc), vehicle: water) was 5 of 10. The survivor count (dose: 500.0 mg/kg/injection, schedule: Q01DX Z (sc), vehicle: water) was 2 of 10.
In the case of O=P1(NCCCl)OCCCN1CCCl (stereo unspecified), the survivor count (dose: 6.25 mg/kg/injection, schedule: Q01DX009 (sc), vehicle: saline) was 5 of 10, the T/C [6] was 146 % of control and the survivor count [6] was 5 of 10. For the same compound, the T/C (dose: 25.0 mg/kg/injection, schedule: Q01DX009 (ip), vehicle: saline) was 141 % of control [9 of 10 alive], the T/C (dose: 25.0 mg/kg/injection, schedule: Q01DX009 (sc), vehicle: saline, evaluated on day 30) was 138 and 143 % of control and the T/C (dose: 25.0 mg/kg/injection, schedule: Q01DX009 (sc), vehicle: saline, evaluated on day 45) was 158 % of control. The T/C (dose: 25.0 mg/kg/injection, schedule: Q01DX009 (sc), vehicle: saline, evaluated on day 60) was 109 % of control [9 of 10 alive], the T/C (dose: 50.0 mg/kg/injection, schedule: Q01DX009 (sc), vehicle: saline, evaluated on day 30) was 165 and 195 % of control and the T/C (dose: 50.0 mg/kg/injection, schedule: Q01DX009 (sc), vehicle: saline, evaluated on day 45) was 176 % of control. For the same compound, the T/C (dose: 50.0 mg/kg/injection, schedule: Q01DX009 (sc), vehicle: saline, evaluated on day 60) was 162 % of control, the T/C (dose: 200.0 mg/kg/injection, schedule: Q01DX009 (ip), vehicle: saline) was 141 % of control and the T/C (dose: 200.0 mg/kg/injection, schedule: Q01DX009 (sc), vehicle: saline, evaluated on day 30) was 141 and 206 % of control. For the same compound, the T/C (dose: 200.0 mg/kg/injection, schedule: Q01DX009 (sc), vehicle: saline, evaluated on day 45) was 278 % of control, the T/C (dose: 200.0 mg/kg/injection, schedule: Q01DX009 (sc), vehicle: saline, evaluated on day 60) was 174 % of control and the T/C [7] was 139 % of control. For the same compound, the survivor count [7] was 3 of 6 and the survivor count (dose: 600.0 mg/kg/injection, schedule: Q01DX009 (sc), vehicle: saline) was 2 of 6.
